No constants are given. Whether binding was seen depends on the method and setting. Some binding calls cover weakened binding; strength is not graded here. One block for each binder: values may come before it.
Tests used:
[1] = biological target: monkey TSLP-His (cynomolgus monkey, Macaca fascicularis) (cynomolgus monkey (Macaca fascicularis)); assay: ELISA, hybridoma supernatant
[2] = biological target: monkey TSLP-His (cynomolgus monkey, Macaca fascicularis) (cynomolgus monkey (Macaca fascicularis)); assay: ELISA, monkey TSLP-His coated
[3] = biological target: monkey TSLP-His (cynomolgus monkey, Macaca fascicularis) (cynomolgus monkey (Macaca fascicularis)); assay: BLI (Fortebio)

binding [1]: binds
binding [2]: binds
B1: chimeric antibody 43B1A8 (antibody, V domains shown)
VH: QMQLVESGGGAVQPGRSLRLSCAASGFTFRSYDMHWVRQAPGKGLEWVAVIWYDGSNENYADSVKGRFTTSRDNSKNTLFLQMNSLRAEDTAVYYCARSPLWYGEPDDAFDIWGQGTLVTVSS
VL: EIVMTQSPATLSVSPGERATLSCRASQSVSSNLAWYQQKPGQAPRLLISGASTRATGIPARFSGSGSGTDFTLTISSLRSEDFAVYYCQHYNNWPLTFGGGTKVEIK

binding [1]: binds
binding [2]: binds
B2: chimeric antibody 37C2D10 (antibody, V domains shown)
VH: QVQLQESGPGLVKPSGTLSLTCAVSGDSISSDNWWNWVRQPPGKGLQWIGEIFHSGRTNYNPSLKSRVTISVDMSKNQFSLKLSSVTAADTAVYFCARDAPNDYGDYGFFDYWGQGILVTVSS
VL: DIVMTQSPLSLPVTPGEPASISCRSSQSLLHSNEYNYLDWYLQKPGQSPQLLIYLGSDRASGVPDRFSGSGSGTDFTLKISRVEAEDVGIYYCMQALQTPYTFGQGTKLEIK

binding [3]: binds
binding [2]: binds
B3: recombinant fully human antibody 37C2D10-hIgG (antibody, V domains shown)
VH: B2 VH
VL: DIVMTQSPLSLPVTPGEPASISCRSSQSLLHSNEYNYLDWYLQKPGQSPQLLIYLGSDRASGVPDRFSGSGSGTDFTLKISRVEAEDVGIYYCMQALQTPYTFGQGTKLEIKR
